Test results from PubChem BioAssay AID252 (DTP/NCI, 2004).
The list does not hold the whole screen: it is rich in T/C values a quarter to a half above the control, in often repeated tests (any T/C) and in doses without a T/C. Other doses and runs of a compound stand elsewhere. T/C is the treated group as % of the vehicle group. Some doses have a count of surviving animals in place of a T/C: the source files T/C as zero there, which appears to mark a toxic dose or a test without result, not a measured value. Some doses without a T/C left all or most animals alive at the check, yet need not have been tolerated: the source hardly ever lists a survival T/C far under the control, and the zero likely stands for such cases as well. Survivors were counted at the toxicity check, usually on the fifth day, unless a day is given; later deaths do not show. Schedule codes are those of the source, read here as Q, the interval in days (D) or hours (H), X, the number of doses. Some molecules as drawn cover several salts, stereoisomers or complexes of the source; a dose is that of the sample tested. Some entries hold several experiments; the values are given in rising order. Some schedule codes hold Z or #, which are not explained here. Where survival is the endpoint, this PubChem deposit counts one and a half times the control or more as active, and values a quarter to a half above the control carry no call in these data; other NCI protocols may use other cut-offs. Signs of the kind (2×) stand for listed records that agree. Some T/C values carry the count of animals alive at the toxicity check (mostly the fifth day); without a count, all were alive then.

System: BDF1 mice, intracerebral L1210 leukemia, survival T/C
Assay: NCI In Vivo Anticancer Drug Screen. Data for tumor model L1210 Leukemia (intracerebral) in B6D2F1 (BDF1) mice
Settings: higher T/C = longer survival
Outline: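 Mice carrying transplanted tumour were dosed with compound; survival was recorded and expressed as treated-group value (T) divided by vehicle-control value (C).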

[1] = T/C endpoint: mean survival time, dose: 250.0 mg/kg/injection, schedule: Q01DX001 (ip), vehicle: other
[2] = T/C endpoint: mean survival time, dose: 1000.0 mg/kg/injection, schedule: Q01DX001 (ip), vehicle: other

Q: With `COc1ccc2c(Nc3ccc(NS(C)(=O)=O)cc3)c3ccccc3nc2c1` as the compound, how does the survivor count (T/C endpoint: mean survival time, dose: 25.0 mg/kg/injection, schedule: Q01DX009 (ip), vehicle: saline) read?
A: 8 of 10

Q: And the survivor count (T/C endpoint: mean survival time, dose: 50.0 mg/kg/injection, schedule: Q01DX009 (ip), vehicle: saline)?
A: 8 of 10

Q: How did the T/C (T/C endpoint: mean survival time, dose: 112.0 mg/kg/injection, schedule: Q01DX001 (ip), vehicle: carboxymethylcellulose (CMC)) turn out when `CC(=O)c1ccc(NC(=O)N(CCCl)N=O)cc1` was run?
A: 127 % of control

Q: What does the source list for `O=c1[nH]c(=O)n(C2CC(O)C(CO)O2)cc1F` (configuration not stated)?
A: T/C (T/C endpoint: mean survival time, dose: 55.0 mg/kg/injection, schedule: Q01DX015 (ip), vehicle: saline): 126 % of control; T/C (T/C endpoint: mean survival time, dose: 126.0 mg/kg/injection, schedule: Q01DX015 (ip), vehicle: saline): 143 % of control

Q: `CN1CCN(CCCN2c3ccccc3Sc3ccc(Cl)cc32)CC1` was tested. Which survivor count (T/C endpoint: mean survival time, dose: 37.5 mg/kg/injection, schedule: Q01DX009 (ip), vehicle: saline) did it give?
A: 2 of 6

Q: How did the T/C (T/C endpoint: mean survival time, dose: 5.0 mg/kg/injection, schedule: Q01DX001 (ip), vehicle: carboxymethylcellulose (CMC)) turn out when `O=NN(CCCl)C(=O)NC1CCS(=O)(=O)CC1` was run?
A: 141 % of control

Q: How did the T/C [1] turn out when `Cc1c(C)c(NC(=O)N(CCCl)N=O)c(C)c(C)c1NC(=O)N(CCCl)N=O` was run?
A: 141 % of control

Q: What about the survivor count [2] of the same compound?
A: 6 of 10

Q: How did the T/C (T/C endpoint: mean survival time, dose: 400.0 mg/kg/injection, schedule: Q08DX009 (ip), vehicle: water) turn out when `N=c1ccn2c(n1)OC1C(O)C(CO)OC12` (configuration not stated) was run?
A: 130 % of control [7 of 8 alive]

Q: What about the T/C (T/C endpoint: mean survival time, dose: 600.0 mg/kg/injection, schedule: Q08DX009 (ip), vehicle: water) of the same compound?
A: 144 % of control

Q: What about the survivor count (T/C endpoint: mean survival time, dose: 800.0 mg/kg/injection, schedule: Q01DX009 (oral), vehicle: water) of the same compound?
A: 4 of 8

Q: And the T/C (T/C endpoint: mean survival time, dose: 800.0 mg/kg/injection, schedule: Q08DX009 (ip), vehicle: water)?
A: 148 % of control [6 of 8 alive]

Q: And the T/C (T/C endpoint: median survival time, dose: 39.0 mg/kg/injection, schedule: Q01DX009 (ip), vehicle: water, evaluated on day 5)?
A: 148 % of control

Q: What about the T/C (T/C endpoint: median survival time, dose: 39.0 mg/kg/injection, schedule: Q01DX009 (ip), vehicle: water, evaluated on day 60) of the same compound?
A: 148 % of control

Q: And the T/C (T/C endpoint: median survival time, dose: 180.0 mg/kg/injection, schedule: Q01DX009 (ip), vehicle: water, evaluated on day 5)?
A: 190, 201, 214 % of control

Q: What about the T/C (T/C endpoint: median survival time, dose: 180.0 mg/kg/injection, schedule: Q01DX009 (ip), vehicle: water, evaluated on day 60) of the same compound?
A: 190 % of control

Q: And the T/C (T/C endpoint: median survival time, dose: 180.0 mg/kg/injection, schedule: Q01DX009 (ip), vehicle: water, evaluated on day 64)?
A: 201 and 214 % of control

Q: What about the T/C (T/C endpoint: median survival time, dose: 300.0 mg/kg/injection, schedule: Q01DX009 (ip), vehicle: water, evaluated on day 5) of the same compound?
A: 223, 224, 259 % of control

Q: And the T/C (T/C endpoint: median survival time, dose: 300.0 mg/kg/injection, schedule: Q01DX009 (ip), vehicle: water, evaluated on day 60)?
A: 223 % of control

Q: And the T/C (T/C endpoint: median survival time, dose: 300.0 mg/kg/injection, schedule: Q01DX009 (ip), vehicle: water, evaluated on day 64)?
A: 224 and 259 % of control [7 of 8 alive]

Q: What about the T/C (T/C endpoint: median survival time, dose: 500.0 mg/kg/injection, schedule: Q01DX009 (ip), vehicle: water, evaluated on day 5) of the same compound?
A: 238, 386, 611 % of control

Q: And the T/C (T/C endpoint: median survival time, dose: 500.0 mg/kg/injection, schedule: Q01DX009 (ip), vehicle: water, evaluated on day 60)?
A: 386 % of control

Q: What about the T/C (T/C endpoint: median survival time, dose: 500.0 mg/kg/injection, schedule: Q01DX009 (ip), vehicle: water, evaluated on day 64) of the same compound?
A: 238 and 611 % of control

Q: What about the survivor count (T/C endpoint: median survival time, dose: 800.0 mg/kg/injection, schedule: Q01DX009 (ip), vehicle: water) of the same compound?
A: 4 of 8

Q: What about the T/C (T/C endpoint: median survival time, dose: 833.0 mg/kg/injection, schedule: Q01DX009 (ip), vehicle: water, evaluated on day 5) of the same compound?
A: 76 and 86 % of control

Q: And the T/C (T/C endpoint: median survival time, dose: 833.0 mg/kg/injection, schedule: Q01DX009 (ip), vehicle: water, evaluated on day 64)?
A: 86 % of control [7 of 8 alive]

Q: What about the survivor count (T/C endpoint: median survival time, dose: 833.0 mg/kg/injection, schedule: Q01DX009 (ip), vehicle: water) of the same compound?
A: 6 of 8

Q: Which survivor count (T/C endpoint: mean survival time, dose: 75.0 mg/kg/injection, schedule: Q01DX Z (ip), vehicle: carboxymethylcellulose (CMC)) does the source give for `O=C(Nc1ccc(C2=NCCN2)cc1)c1ccc(C(=O)Nc2ccc(C3=NCCN3)cc2)c(Cl)c1` here?
A: 3 of 6

Q: And the survivor count (T/C endpoint: mean survival time, dose: 100.0 mg/kg/injection, schedule: Q01DX Z (ip), vehicle: carboxymethylcellulose (CMC))?
A: 0 of 6

Q: What about the survivor count (T/C endpoint: mean survival time, dose: 110.0 mg/kg/injection, schedule: Q01DX001 (ip), vehicle: carboxymethylcellulose (CMC)) of the same compound?
A: 0 of 10 and 4 of 10

Q: With `O=NN(CCCl)C(=O)NC1CCC(C(=O)O)CC1` (configuration not stated) as the compound, how does the T/C (T/C endpoint: mean survival time, dose: 12.0 mg/kg/injection, schedule: Q01DX001 (ip), vehicle: saline with Tween-80) read?
A: 128 % of control (2×)

Q: And the T/C (T/C endpoint: mean survival time, dose: 18.0 mg/kg/injection, schedule: Q01DX001 (ip), vehicle: saline with Tween-80)?
A: 126 and 134 % of control

Q: `CC12CC3(C)CC(C)(C1)CC(NC(=O)N(CCCl)N=O)(C2)C3` was tested. Which T/C [1] did it give?
A: 134 % of control

Q: And the T/C (T/C endpoint: mean survival time, dose: 375.0 mg/kg/injection, schedule: Q01DX001 (ip), vehicle: other)?
A: 131 % of control

Q: And the T/C (T/C endpoint: mean survival time, dose: 500.0 mg/kg/injection, schedule: Q01DX001 (ip), vehicle: other)?
A: 132 % of control

Q: What about the T/C (T/C endpoint: mean survival time, dose: 750.0 mg/kg/injection, schedule: Q01DX001 (ip), vehicle: other) of the same compound?
A: 126 % of control

Q: What about the T/C [2] of the same compound?
A: 143 % of control [5 of 6 alive]

Q: What about the survivor count (T/C endpoint: mean survival time, dose: 1500.0 mg/kg/injection, schedule: Q01DX001 (ip), vehicle: other) of the same compound?
A: 3 of 6

Q: Which results are given for `COc1cc(NS(C)(=O)=O)ccc1Nc1c2ccc([N+](=O)[O-])cc2nc2c(C)cccc12`?
A: survivor count (T/C endpoint: mean survival time, dose: 10.0 mg/kg/injection, schedule: Q01DX009 (ip), vehicle: saline): 10 of 10; survivor count (T/C endpoint: mean survival time, dose: 20.0 mg/kg/injection, schedule: Q01DX009 (ip), vehicle: saline): 4 of 10; survivor count (T/C endpoint: mean survival time, dose: 20.0 mg/kg/injection, schedule: Q01DX009 (sc), vehicle: saline): 8 of 10
